Test results reported in paper PMC6511843.
These are yes or no findings as the source states them, for the method shown. Binding can be weak; no strength is given.

Target: GST-USP17(ΔH) (human)
Assay: pull-down; GST or GST-USP17 fusions on glutathione agarose beads incubated with recombinant ELK-1, ELK-1 deletion mutants or ERK2; bound proteins detected by immunoblotting with an anti-His antibody; both purified

B1: recombinant ELK-1 (protein, UniProt P19419 1-428)
chain: MDPSVTLWQFLLQLLREQGNGHIISWTSRDGGEFKLVDAEEVARLWGLRKNKTNMNYDKLSRALRYYYDKNIIRKVSGQKFVYKFVSYPEVAGCSTEDCPPQPEVSVTSTMPNVAPAAIHAAPGDTVSGKPGTPKGAGMAGPGGLARSSRNEYMRSGLYSTFTIQSLQPQPPPHPRPAVVLPSAAPAGAAAPPSGSRSTSPSPLEACLEAEEAGLPLQVILTPPEAPNLKSEELNVEPGLGRALPPEVKVEGPKEELEVAGERGFVPETTKAEPEVPPQEGVPARLPAVVMDTAGQAGGHAASSPEISQPQKGRKPRDLELPLSPSLLGGPGPERTPGSGSGSGLQAPGPALTPSLLPTHTLTPVLLTPSSLPPSIHFWSTLSPIAPRSPAKLSFQFPSSGSAQVHIPSISVDGLSTPVVLSPGPQKP
In the case of B1, the binding is reported as “binds”.
